{"source": "patent US9902752B2", "about": "“5-fluorouracil derivatives” (B. Braun Melsungen AG, priority 2012, dated 2018)", "experiment": "Lipophilicity as chromatographic mobility, RP-18 HPLC retention time", "assay_type": "physicochemical", "conditions": "MeCN/0.1 M Et3NH+OAc− (35:65, v/v, pH 7.0)", "procedure": "RP-18 HPLC was carried out on a 250×4 mm RP-18 column (Merck, Germany) on a Merck-Hitachi HPLC apparatus with one pump (Model 655A-12) connected with a proportioning valve, a variable wavelength monitor (Model 655 A), a controller (Model L-5000), and an integrator (Model D-2000). Solvent: MeCN/0.1 M Et3NH^+OAc^− (35:65, v/v, pH 7.0).\nThe lipophilicity of various 5-fluorouridine derivatives has been studied since the lipophilicity has inter alia an influence on the incorporation into oligo(2′-deoxynucleotides). The lipophilicity of the novel hydrophobic nucleoside derivatives has been studied in different by two ways: (i) log P values of the compounds were calculated (Table 4) and compared with those of the unmodified nucleoside 1a, (ii) the chromatographic mobilities of the compounds were measured in terms of retention times (tR in min) by RP-18 HPLC.", "note": "At least one compound was matched to its structure with a doubt left.", "data": [{"smiles": "CC1(C)O[C@@H]2[C@H](O1)[C@@H](CO)O[C@H]2n1cc(F)c(=O)[nH]c1=O", "note": "[Compound 19a, 5-Fluoro-1-((3aR,4R,6R,6aR)-6-(hydroxymethyl)-2,2-dimethyltetrahydrofuro[3,4-d][1,3]dioxol-4-yl)pyrimidine-2,4(1H,3H)-dione]", "values": [{"measurement": "RP-18 HPLC tR", "value": "unstable"}]}]}
